{
  "sequences": {"note": "By UniProt entry, the sequences of proteins in these tests, tags left out. Where a name states a change or a piece, a line headed by the entry shows the natural chain unless it says otherwise.", "UniProt Q9BZB8": "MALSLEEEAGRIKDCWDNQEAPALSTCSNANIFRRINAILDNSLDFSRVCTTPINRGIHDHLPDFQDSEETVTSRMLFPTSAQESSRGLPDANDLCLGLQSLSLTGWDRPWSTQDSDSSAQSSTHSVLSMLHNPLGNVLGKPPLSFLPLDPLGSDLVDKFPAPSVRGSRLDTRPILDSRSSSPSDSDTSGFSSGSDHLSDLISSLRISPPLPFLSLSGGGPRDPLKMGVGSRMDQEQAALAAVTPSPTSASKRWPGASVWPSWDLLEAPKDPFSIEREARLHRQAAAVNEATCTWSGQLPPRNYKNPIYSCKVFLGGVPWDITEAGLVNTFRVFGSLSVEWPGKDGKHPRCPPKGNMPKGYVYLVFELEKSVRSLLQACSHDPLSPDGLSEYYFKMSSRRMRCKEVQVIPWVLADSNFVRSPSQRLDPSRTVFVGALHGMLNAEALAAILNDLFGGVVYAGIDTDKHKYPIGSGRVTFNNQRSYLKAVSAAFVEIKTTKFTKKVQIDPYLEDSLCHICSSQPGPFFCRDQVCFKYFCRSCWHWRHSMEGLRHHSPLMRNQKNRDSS", "UniProt P08515, whole entry": "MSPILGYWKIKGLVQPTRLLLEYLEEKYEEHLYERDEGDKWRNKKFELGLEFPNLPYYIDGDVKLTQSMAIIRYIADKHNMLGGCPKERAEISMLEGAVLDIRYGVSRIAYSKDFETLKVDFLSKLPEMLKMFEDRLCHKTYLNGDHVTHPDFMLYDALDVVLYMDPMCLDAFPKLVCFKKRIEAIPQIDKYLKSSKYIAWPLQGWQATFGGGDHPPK"},
  "source": "patent US20050095632",
  "key": {"[1]": {"molecular_target": "GST-hCPEB1 (Homo sapiens) (UniProt Q9BZB8)", "experiment": "EMSA", "conditions": "protein translated in vitro, label: 32P"}, "GST moiety alone": {"molecular_target": "GST moiety alone (UniProt P08515)", "experiment": "EMSA", "conditions": "no specific complex; nonspecific lysate complex seen; protein translated in vitro; protein details: GST from pXen1 vector without insert; label: 32P"}, "[2]": {"conditions": "reticulocyte lysate, variant of human Mos 3' UTR wild-type"}},
  "note": "Construct, isoform or probe ends are uncertain for at least one entry. A negative result means that nothing was seen under these conditions.",
  "data": [
    {"sequence": "CUGAAAACCUGGUCAAGAUAAGUUUUUGUCUGAUUCUAUUUCUUUUUAAAGGAAGUGGAGAUGUCGAAGAAAACAUAUUUGUAGGAUGGAGUUUUAGAAAAUAAAGUUACUAAAAACUC [human Mos 3' UTR wild-type]", "values": [
      {"measurement": "binding result", "setting": "[1]", "result": "binds"},
      {"measurement": "binding result", "setting": "GST moiety alone", "result": "no binding"}
    ]},
    {"sequence": "UGUUUGGGAAGAGUUUGGGAAAAUAAAGUU [human Mos 3' UTR mutant 3 (U5A and U4A disrupted)]", "values": [
      {"measurement": "binding result", "setting": "[1]; [2]", "result": "no binding"}
    ]},
    {"sequence": "UGUUUGGGAAGAGUUUUAGAAAAUAAAGUU [human Mos 3' UTR mutant 2 (U5A disrupted)]", "values": [
      {"measurement": "binding result", "setting": "[1]; 50-fold excess also had little effect as competitor, variant of human Mos 3' UTR wild-type", "result": "no binding"}
    ]},
    {"sequence": "UGUUUUUAAAGAGUUUGGGAAAAUAAAGUU [human Mos 3' UTR mutant 1 (U4A disrupted)]", "values": [
      {"measurement": "binding result", "setting": "[1]; [2]", "result": "binds"}
    ]}
  ]
}
